Measured values from patent publication US9193673B2, “Derivatives of mesalazine, process of their preparation and their use in the treatment of intestinal inflammatory diseases” (SOFAR SPA, priority 2010, dated 2015).
For at least one compound, name, drawing or mass did not settle the structure.

Test: Stability in simulated gastric and simulated intestinal fluids
Assay type: physicochemical
Protocol: Such study is conducted with the aim of evaluating the stability of the compound (IV) at […] in absence of enzymes of the intestinal bacterial flora.
The stability of the compound (IV) is compared to that of known reference standards.

## CO[C@H]1/C=C/O[C@@]2(C)Oc3c(C)c(O)c4c(O)c(c(/C=N/N5CCN(C)CC5)c(O)c4c3C2=O)NC(=O)/C(C)=C\C=C\[C@H](C)[C@H](O)[C@@H](C)[C@@H](O)[C@@H](C)[C@H](OC(C)=O)[C@@H]1C [Rifampicin]
SGF, 30 min incubation
  % Residue: 84.9 ± 1.5%
SGF, 60 min incubation
  % Residue: 65.8 ± 1.5%
SIF, 30 min incubation
  % Residue: 98.9 ± 1.1%
SIF, 60 min incubation
  % Residue: 94.2 ± 1.1%
